# Record: PubChem BioAssay AID504791 (Drosophila RNAi Screening Center, 2011)
# Screen: 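Genes whose knock-down strengthens or weakens small-RNA reporter silencing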 (primary screen)
# Cells: Drosophila S2-derived reporter cells
# Reagents: long dsRNA against Drosophila genes, about 150-250 ng dsRNA per well (siRNA assay); about 80-120 ng (miRNA assay)
# Timing: about 5 days (siRNA assay); about 4 days (miRNA assay)
# Challenge: copper sulfate induction of reporters: 25 µM (siRNA assay); 200 mM stated (miRNA assay), 1-2 days before reading
# Measured: 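Dual luciferase assay: Renilla to firefly signal ratio in each well, scaled to the mean ratio of its plate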
# Active means: 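First-pass picks had plate-scaled ratios over 1.5 for the siRNA assay, over 1.6 for the miRNA assay, or under 0.6; two distinct dsRNAs had to score alike on retest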
# In all, the deposit lists about 23,000 reagents; shown is an unselected part of those that have a named target and a result. In the full data, 199 (0.86%) got an active call. 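Plate-scaled ratios behind the calls are not deposited; printed light signals are raw; many rows marked increased or decreased are still called inactive.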 No sequences are given here. The record does not give: the direction of the score.
predicted target,dsRNA,stable siRNA reporter change,miRNA reporter change,"stable assay Renilla, run 1 (luminescence)","stable assay firefly, run 1 (luminescence)",outcome
CG5882,DRSC15907,,,6391,3.27e5,inactive
Gyc89Db,DRSC15009,reporter ratio raised past the hit cutoff,,26614,5.48e5,inactive
blp,DRSC15757,,,8322,5.05e5,inactive
HP4,DRSC10958,,,7888,4.80e5,inactive
betaNACtes2,DRSC19792,,,4607,4.06e5,inactive
CG31636,DRSC02276,,,7007,3.79e5,inactive
CG18641,DRSC00527,,,8660,4.64e5,inactive
GEFmeso,DRSC06748,,,8760,2.65e5,inactive
GEFmeso,DRSC06940,,reporter ratio raised past the hit cutoff,7307,3.18e5,inactive
GEFmeso,DRSC21475,,,8768,4.95e5,inactive
Ir21a,DRSC00528,,,8414,3.81e5,inactive
hng3,DRSC08367,,,6075,3.45e5,inactive
Klp59D,DRSC04118,,,4754,2.98e5,inactive
CG14421,DRSC17918,,,6935,4.17e5,inactive
CG17107,DRSC02575,,,4727,4.65e5,inactive
CG17107,DRSC22627,,,3395,3.50e5,inactive
Iris,DRSC00663,,,42155,4.13e5,inactive
Ugt50B3,DRSC04778,,,5059,4.65e5,inactive
Ugt50B3,DRSC04779,,,4392,4.77e5,inactive
Ugt50B3,DRSC21419,,,8477,4.67e5,inactive
CG8910,DRSC07414,,,6472,3.59e5,inactive
y,DRSC18853,,,8383,6.06e5,inactive
CR30029,DRSC06724,,,6214,4.59e5,inactive
CG31386 (retired record),DRSC22769,,,3384,4.02e5,inactive
CG31386 (retired record),DRSC23186,,,3751,3.12e5,inactive
sle,DRSC14557,,,8266,3.67e5,inactive
Bet5,DRSC14600,,,6075,4.71e5,inactive
Tep1,DRSC03450,,,6466,3.52e5,inactive
spas,DRSC15929,,,9480,5.93e5,inactive

8 entries from above, arranged by “stable assay firefly, run 1 (luminescence)”, highest first.
predicted target,dsRNA,stable siRNA reporter change,miRNA reporter change,"stable assay Renilla, run 1 (luminescence)","stable assay firefly, run 1 (luminescence)",outcome
Gyc89Db,DRSC15009,reporter ratio raised past the hit cutoff,,26614,5.48e5,inactive
blp,DRSC15757,,,8322,5.05e5,inactive
HP4,DRSC10958,,,7888,4.80e5,inactive
CG18641,DRSC00527,,,8660,4.64e5,inactive
betaNACtes2,DRSC19792,,,4607,4.06e5,inactive
CG31636,DRSC02276,,,7007,3.79e5,inactive
GEFmeso,DRSC06940,,reporter ratio raised past the hit cutoff,7307,3.18e5,inactive
GEFmeso,DRSC06748,,,8760,2.65e5,inactive

The results go on:
predicted target,dsRNA,stable siRNA reporter change,miRNA reporter change,"stable assay Renilla, run 1 (luminescence)","stable assay firefly, run 1 (luminescence)",outcome
Bka,DRSC02757,,,6874,4.67e5,inactive
CG4957,DRSC02793,,,6782,4.10e5,inactive
schlank,DRSC18102,,,4812,3.29e5,inactive
schlank,DRSC18313,,,5658,3.39e5,inactive
dock,DRSC00812,,,10725,2.25e5,inactive
Surf6,DRSC15588,,,11105,3.58e5,inactive
MFS12,DRSC07268,,,8115,4.98e5,inactive
Ndg,DRSC06223,,,8820,3.75e5,inactive
CG30466,DRSC05556,,,6491,3.46e5,inactive
pzg,DRSC11848,,,8802,4.07e5,inactive
robo2,DRSC00377,,,6551,3.23e5,inactive
robo2,DRSC00378,,,7566,4.04e5,inactive
robo2,DRSC00686,,,8006,4.32e5,inactive
robo2,DRSC00691,,,52646,1.07e5,inactive
CG11825,DRSC06090,,,6270,3.77e5,inactive
Lamp1,DRSC03727,,,6767,5.21e5,inactive
Tspo,DRSC00533,,,1.15e5,3.17e5,inactive
CG6083,DRSC10580,,,7647,5.00e5,inactive
CG30122,DRSC06776,,,10772,2.85e5,inactive
CG30122,DRSC06935,,,8793,3.22e5,inactive
Mtr4,DRSC03560,,reporter ratio raised past the hit cutoff,9291,1.54e6,inactive
Tomosyn,DRSC19365,,,5263,2.11e5,inactive
Tomosyn,DRSC19692,,,4472,4.88e5,inactive
Tomosyn,DRSC19782,,,7284,3.63e5,inactive
Tomosyn,DRSC19842,,,4639,4.78e5,inactive
cag,DRSC07587,,,6998,4.26e5,inactive
Whamy,DRSC14574,,,6392,3.68e5,inactive
mAcon1,DRSC01853,,,8086,4.97e5,inactive
Ccs,DRSC06692,,,6632,3.70e5,inactive
CG34166,DRSC02482,,,3983,4.17e5,inactive
CG31301,DRSC22164,,,9317,5.27e5,inactive
CG15082,DRSC06513,,,5779,3.76e5,inactive
tbrd-1,DRSC14601,,,7059,3.49e5,inactive
ND-20,DRSC20164,,,6626,4.91e5,inactive
tutl,DRSC00441,,,6987,5.53e5,inactive
tutl,DRSC00442,,,7383,5.96e5,inactive
tutl,DRSC00443,,,6498,5.25e5,inactive
CG15465,DRSC18048,,,6015,2.68e5,inactive
CCKLR-17D1,DRSC20010,,,5324,4.75e5,inactive
CCKLR-17D1,DRSC20011,,,6367,5.44e5,inactive
CCKLR-17D1,DRSC20012,,,5778,4.94e5,inactive
Nost,DRSC18037,,,6899,4.06e5,inactive
Nost,DRSC18338,,,6923,3.99e5,inactive
Tengl3,DRSC22288,,,9913,6.91e5,inactive
rho,DRSC08734,,,5459,3.65e5,inactive
CG34354,DRSC13863,,,6491,4.93e5,inactive
CG34354,DRSC14515,,,4938,2.52e5,inactive
CG34354,DRSC14558,reporter ratio raised past the hit cutoff,,5871,2.09e5,inactive
CG34354,DRSC15645,,,6691,3.95e5,inactive
CG34354,DRSC23054,,,4159,3.34e5,inactive
Hsp60C,DRSC03036,,,8618,6.51e5,inactive
mud,DRSC19019,,,4691,4.07e5,inactive
CG34267,DRSC07881,,,4767,3.33e5,inactive
pxb,DRSC13110,reporter ratio lowered past the hit cutoff,,3079,4.48e5,inactive
pxb,DRSC14996,,,2700,2.45e5,inactive
pxb,DRSC14997,,,6658,4.46e5,inactive
pxb,DRSC22225,,,10458,6.57e5,inactive
